PubChem BioAssay AID720505 – Drosophila RNAi Screening Center, 2013

Screen: 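Genes needed for store-operated calcium entry in fly cells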 (primary screen)
Cell system: Drosophila S2R+ cells
Knock-down reagent: long dsRNA against Drosophila genes
Treatment: thapsigargin (2 µM) in calcium-free buffer to empty internal stores, then 2 mM calcium added back
Measurement: 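Fluo-4 signal in 384-well plates read on a FLIPR after thapsigargin (2 µM, calcium-free) store depletion and 2 mM calcium add-back; unnormalised mean endpoint per well; screen run twice, selected wells retested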
Reading the numbers: calcium signal and retest calcium signal: higher = more calcium entry after store depletion
Active means: 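About 1500 genes called as lowering calcium entry, by varying amounts, judged against per-plate control wells with STIM1 as positive and Rho1 as negative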
Calls: active = called as lowering calcium entry; inactive = not called
In all, the deposit lists about 20,000 reagents; below is a random part of those that have a named target and a result. Over the whole deposit, about 2,100 (10%) were called active. 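Raw plate signals without normalisation; calls rest on control-based scores that were not deposited; replicate 2 separates called from uncalled poorly.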 Names joined by + are all predicted targets of the reagent. The record does not give: the amount of reagent, the time to read-out.

| gene | amplicon | calcium signal, replicate 1 | calcium signal, replicate 2 | retest calcium signal, replicate 1 | retest calcium signal, replicate 2 | Call |
| --- | --- | --- | --- | --- | --- | --- |
| Ehbp1 | DRSC06561 | 144 | 79.7 | – | – | inactive |
| eIF3e | DRSC11199 | 102 | 149 | – | – | inactive |
| CG15382 | DRSC00397 | 130 | 143 | – | – | inactive |
| RASSF8 | DRSC15707 | 89.2 | 121 | – | – | inactive |
| CG13679 | DRSC10037 | 110 | 92.4 | 6777 | 79.6 | inactive |
| CG13679 | DRSC22749 | 146 | 203 | – | – | inactive |
| milt | DRSC00965 | 75.6 | 127 | – | – | inactive |
| milt | DRSC00966 | 86.9 | 116 | – | – | inactive |
| milt | DRSC02281 | 145 | 176 | – | – | inactive |
| CG30270 | DRSC22890 | 106 | 174 | – | – | inactive |
| TwdlR | DRSC14736 | 96.6 | 146 | – | – | inactive |
| Cpr65Eb | DRSC11026 | 119 | 98.4 | – | – | inactive |
| maf-S | DRSC07348 | 76.7 | 82.4 | – | – | inactive |
| Fim | DRSC20243 | 73.5 | 100 | – | – | active |
| Tsp29Fb | DRSC03233 | 130 | 92.8 | – | – | inactive |
| GatC + PolG2 | DRSC03312 | 72.5 | 103 | – | – | inactive |
| CG32425 | DRSC11739 | 98.1 | 140 | – | – | inactive |
| CG32425 | DRSC11764 | 155 | 121 | – | – | inactive |
| CG12158 | DRSC22933 | 71.9 | 102 | – | – | active |
| smid | DRSC11398 | 92.4 | 53 | – | – | inactive |
| ATPsyngamma | DRSC14094 | 166 | 146 | – | – | inactive |
| SP1173 | DRSC11277 | 65 | 85.5 | – | – | active |
| stops | DRSC15095 | 143 | 143 | – | – | inactive |
| stops | DRSC15096 | 162 | 171 | – | – | inactive |
| stops | DRSC15097 | 146 | 143 | – | – | inactive |
| Mkk4 | DRSC16739 | 118 | 170 | – | – | inactive |
| ppk16 | DRSC02736 | 193 | 161 | – | – | inactive |
| CG6621 | DRSC16076 | 115 | 120 | – | – | inactive |
| b6 | DRSC18740 | 137 | 138 | – | – | inactive |
| CR10032 | DRSC12499 | 114 | 156 | – | – | inactive |
| Cen | DRSC02704 | 93.6 | 82.3 | – | – | inactive |
| CG6073 | DRSC15962 | 59.1 | 147 | 124 | 141 | active |
| CG6073 | DRSC22742 | 101 | 209 | – | – | inactive |
| CG18598 | DRSC15356 | 162 | 152 | – | – | inactive |
| CG15522 | DRSC15059 | 174 | 157 | – | – | inactive |
| eIF2gamma + Su(var)3-9 | DRSC16873 | 125 | 135 | – | – | inactive |
| CG7329 | DRSC03046 | 188 | 159 | – | – | inactive |
| Lgr4 | DRSC18970 | – | – | – | – | active |
| Lgr4 | DRSC19884 | 109 | 92.3 | – | – | inactive |
| Got2 | DRSC00643 | 159 | 264 | – | – | inactive |
| CG8252 | DRSC07126 | 173 | 149 | – | – | inactive |
| CG2875 | DRSC18231 | 114 | 168 | – | – | inactive |
| GATAe | DRSC14223 | 147 | 182 | 95.6 | 120 | inactive |
| GATAe | DRSC23209 | 127 | 137 | – | – | inactive |
| btl | DRSC11331 | 67.4 | 82.4 | – | – | inactive |
| Xpc | DRSC07654 | 114 | 112 | – | – | inactive |
| Sgsh | DRSC14771 | 125 | 76.8 | – | – | inactive |
| Ptp61F | DRSC08683 | 98 | 145 | – | – | inactive |
| Obp58c | DRSC04166 | 195 | 214 | – | – | inactive |
| CG30082 | DRSC22945 | 70.2 | 124 | – | – | inactive |
| CG13999 | DRSC02331 | 217 | 120 | – | – | inactive |
| hzg | DRSC10549 | 101 | 129 | – | – | inactive |
| CG31778 | DRSC00283 | 121 | 183 | – | – | inactive |
| Cyp313a1 | DRSC16624 | 103 | 135 | – | – | inactive |
| Gmap | DRSC19988 | 142 | 116 | – | – | inactive |
| Gmap | DRSC20057 | 102 | 110 | – | – | inactive |
| dup | DRSC07088 | 41.7 | 145 | – | – | active |
| CG42557 + CG42558 | DRSC16329 | 128 | 140 | – | – | inactive |
| blow | DRSC07586 | 156 | 98.2 | – | – | inactive |
| Obp46a | DRSC06220 | 106 | 108 | – | – | inactive |
| CG5421 | DRSC02858 | 114 | 126 | – | – | inactive |
| Pp4-19C | DRSC20559 | 70.2 | 184 | – | – | active |
| Pp4-19C | DRSC21251 | 61.8 | 150 | – | – | active |
| Pp4-19C | DRSC23319 | 77.7 | 130 | – | – | inactive |
| CG18128 | DRSC04304 | 141 | 180 | – | – | inactive |
| Lpin | DRSC07241 | 176 | 181 | – | – | inactive |
| CG42580 | DRSC20397 | 81.5 | 68.3 | – | – | inactive |
| CG11883 | DRSC06094 | 139 | 127 | – | – | inactive |
| Lcp65Ag3 | DRSC10345 | 71.5 | 42.5 | 112 | 82.9 | active |
| CG13310 | DRSC09981 | 90.3 | 86.8 | – | – | inactive |
| gcm | DRSC03536 | 220 | 151 | – | – | inactive |
| Alr | DRSC19469 | 47.1 | 89.3 | – | – | active |
| CG5180 | DRSC15731 | 230 | 179 | – | – | inactive |
| CG33233 | DRSC08239 | 86.8 | 113 | – | – | inactive |
| Mov10 | DRSC07012 | 65.2 | 132 | – | – | active |
| CG3045 | DRSC04331 | 150 | 92.2 | – | – | inactive |
| CG34015 | DRSC19140 | 86.5 | 121 | – | – | inactive |
| CG6472 | DRSC06989 | 136 | 118 | – | – | inactive |
| Cpr64Ac | DRSC08462 | 121 | 140 | – | – | inactive |
| Ect3 | DRSC15462 | 179 | 104 | – | – | inactive |
| fd102C | DRSC17203 | 89.4 | 113 | – | – | inactive |
| CG1789 | DRSC18140 | 110 | 99.1 | – | – | inactive |
| NC2beta | DRSC01895 | 122 | 165 | – | – | inactive |

Only “calcium signal, replicate 2”, for 11 of the entries above:
ATPsyngamma [DRSC14094]	146
SP1173 [DRSC11277]	85.5
stops [DRSC15095]	143
stops [DRSC15096]	171
stops [DRSC15097]	143
Mkk4 [DRSC16739]	170
ppk16 [DRSC02736]	161
CG6621 [DRSC16076]	120
b6 [DRSC18740]	138
CR10032 [DRSC12499]	156
Cen [DRSC02704]	82.3
